Data set [1] concerns T1, CAR (hCAR alone) (Homo sapiens).
T1 sequence (looked up, limits assumed): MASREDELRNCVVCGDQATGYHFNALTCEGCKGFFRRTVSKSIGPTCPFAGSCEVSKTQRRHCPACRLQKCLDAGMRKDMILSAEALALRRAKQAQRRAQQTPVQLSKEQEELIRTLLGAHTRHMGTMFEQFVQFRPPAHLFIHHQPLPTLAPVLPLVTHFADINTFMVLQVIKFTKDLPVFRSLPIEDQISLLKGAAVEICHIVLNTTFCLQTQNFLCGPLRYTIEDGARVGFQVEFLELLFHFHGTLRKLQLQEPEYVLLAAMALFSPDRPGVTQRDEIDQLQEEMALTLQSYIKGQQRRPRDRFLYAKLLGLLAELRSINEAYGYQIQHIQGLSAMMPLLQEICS
The data set is described as follows: EMSA. As to conditions: protein translated in vitro; protein details: TNT coupled transcription/translation (Promega); label: 32P. (In general: In EMSA bound probe runs differently from free probe, usually more slowly.)

Chains of the proteins cited; added tags and fusions are not shown. Chains listed by the source or under a name are the forms on record and can include a tag or linker.
PXR/RXR heterodimer (hPXR/hRXRa) (Homo sapiens), one chain, as listed by the source, chain 1 of 2: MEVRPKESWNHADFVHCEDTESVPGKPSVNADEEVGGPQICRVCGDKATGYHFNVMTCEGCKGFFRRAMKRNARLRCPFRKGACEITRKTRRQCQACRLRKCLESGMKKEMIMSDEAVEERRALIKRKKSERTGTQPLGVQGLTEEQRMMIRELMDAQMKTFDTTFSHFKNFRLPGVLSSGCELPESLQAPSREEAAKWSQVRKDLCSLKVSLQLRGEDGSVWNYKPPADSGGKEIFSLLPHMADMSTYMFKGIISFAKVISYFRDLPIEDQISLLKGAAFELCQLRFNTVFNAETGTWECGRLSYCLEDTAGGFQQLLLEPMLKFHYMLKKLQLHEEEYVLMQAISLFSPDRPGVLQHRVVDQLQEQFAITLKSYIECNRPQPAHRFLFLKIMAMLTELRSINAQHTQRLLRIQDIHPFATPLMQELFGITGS
PXR/RXR heterodimer (hPXR/hRXRa) (Homo sapiens), one chain, as listed by the source, chain 2 of 2: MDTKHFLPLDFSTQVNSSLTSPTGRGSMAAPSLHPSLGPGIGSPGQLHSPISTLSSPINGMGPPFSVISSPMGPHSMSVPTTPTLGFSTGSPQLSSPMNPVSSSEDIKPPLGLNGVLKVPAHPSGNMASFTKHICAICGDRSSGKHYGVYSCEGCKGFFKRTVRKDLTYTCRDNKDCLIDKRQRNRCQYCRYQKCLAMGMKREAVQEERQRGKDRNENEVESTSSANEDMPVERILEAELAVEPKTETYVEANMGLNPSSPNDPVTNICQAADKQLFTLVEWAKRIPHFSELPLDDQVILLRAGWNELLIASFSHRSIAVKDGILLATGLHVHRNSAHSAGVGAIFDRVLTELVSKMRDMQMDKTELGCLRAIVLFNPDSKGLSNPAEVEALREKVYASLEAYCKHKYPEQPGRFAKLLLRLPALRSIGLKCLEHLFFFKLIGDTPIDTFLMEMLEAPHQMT

Data set [2] has as its system PXR/RXR heterodimer (hPXR/hRXRa) (Homo sapiens). Put plainly: EMSA. Conditions: protein translated in vitro; protein details: TNT coupled transcription/translation (Promega); label: 32P.

For some assays here: No signal at the amounts used counts as a negative. For some assays here: Tags and fusion partners may be left off the protein sequences shown. For some assays here: The comparison behind a weaker result is the experiment's own reference, which may not be listed here.

In the case of “AACCAAACTCTTCTGACCCCCAATCT (double strand) [CYP2C19 F4 fragment]”, the results for the binding result in data set [1] and in data set [2] were “no binding” and “binds more weakly”, respectively.

(Values after US20040077080.)
